Sequences of proteins named here, by UniProt entry; tags and fusion partners are left off. A change or cut given only in a name is not applied to a line headed by its entry.
UniProt Q2QI47: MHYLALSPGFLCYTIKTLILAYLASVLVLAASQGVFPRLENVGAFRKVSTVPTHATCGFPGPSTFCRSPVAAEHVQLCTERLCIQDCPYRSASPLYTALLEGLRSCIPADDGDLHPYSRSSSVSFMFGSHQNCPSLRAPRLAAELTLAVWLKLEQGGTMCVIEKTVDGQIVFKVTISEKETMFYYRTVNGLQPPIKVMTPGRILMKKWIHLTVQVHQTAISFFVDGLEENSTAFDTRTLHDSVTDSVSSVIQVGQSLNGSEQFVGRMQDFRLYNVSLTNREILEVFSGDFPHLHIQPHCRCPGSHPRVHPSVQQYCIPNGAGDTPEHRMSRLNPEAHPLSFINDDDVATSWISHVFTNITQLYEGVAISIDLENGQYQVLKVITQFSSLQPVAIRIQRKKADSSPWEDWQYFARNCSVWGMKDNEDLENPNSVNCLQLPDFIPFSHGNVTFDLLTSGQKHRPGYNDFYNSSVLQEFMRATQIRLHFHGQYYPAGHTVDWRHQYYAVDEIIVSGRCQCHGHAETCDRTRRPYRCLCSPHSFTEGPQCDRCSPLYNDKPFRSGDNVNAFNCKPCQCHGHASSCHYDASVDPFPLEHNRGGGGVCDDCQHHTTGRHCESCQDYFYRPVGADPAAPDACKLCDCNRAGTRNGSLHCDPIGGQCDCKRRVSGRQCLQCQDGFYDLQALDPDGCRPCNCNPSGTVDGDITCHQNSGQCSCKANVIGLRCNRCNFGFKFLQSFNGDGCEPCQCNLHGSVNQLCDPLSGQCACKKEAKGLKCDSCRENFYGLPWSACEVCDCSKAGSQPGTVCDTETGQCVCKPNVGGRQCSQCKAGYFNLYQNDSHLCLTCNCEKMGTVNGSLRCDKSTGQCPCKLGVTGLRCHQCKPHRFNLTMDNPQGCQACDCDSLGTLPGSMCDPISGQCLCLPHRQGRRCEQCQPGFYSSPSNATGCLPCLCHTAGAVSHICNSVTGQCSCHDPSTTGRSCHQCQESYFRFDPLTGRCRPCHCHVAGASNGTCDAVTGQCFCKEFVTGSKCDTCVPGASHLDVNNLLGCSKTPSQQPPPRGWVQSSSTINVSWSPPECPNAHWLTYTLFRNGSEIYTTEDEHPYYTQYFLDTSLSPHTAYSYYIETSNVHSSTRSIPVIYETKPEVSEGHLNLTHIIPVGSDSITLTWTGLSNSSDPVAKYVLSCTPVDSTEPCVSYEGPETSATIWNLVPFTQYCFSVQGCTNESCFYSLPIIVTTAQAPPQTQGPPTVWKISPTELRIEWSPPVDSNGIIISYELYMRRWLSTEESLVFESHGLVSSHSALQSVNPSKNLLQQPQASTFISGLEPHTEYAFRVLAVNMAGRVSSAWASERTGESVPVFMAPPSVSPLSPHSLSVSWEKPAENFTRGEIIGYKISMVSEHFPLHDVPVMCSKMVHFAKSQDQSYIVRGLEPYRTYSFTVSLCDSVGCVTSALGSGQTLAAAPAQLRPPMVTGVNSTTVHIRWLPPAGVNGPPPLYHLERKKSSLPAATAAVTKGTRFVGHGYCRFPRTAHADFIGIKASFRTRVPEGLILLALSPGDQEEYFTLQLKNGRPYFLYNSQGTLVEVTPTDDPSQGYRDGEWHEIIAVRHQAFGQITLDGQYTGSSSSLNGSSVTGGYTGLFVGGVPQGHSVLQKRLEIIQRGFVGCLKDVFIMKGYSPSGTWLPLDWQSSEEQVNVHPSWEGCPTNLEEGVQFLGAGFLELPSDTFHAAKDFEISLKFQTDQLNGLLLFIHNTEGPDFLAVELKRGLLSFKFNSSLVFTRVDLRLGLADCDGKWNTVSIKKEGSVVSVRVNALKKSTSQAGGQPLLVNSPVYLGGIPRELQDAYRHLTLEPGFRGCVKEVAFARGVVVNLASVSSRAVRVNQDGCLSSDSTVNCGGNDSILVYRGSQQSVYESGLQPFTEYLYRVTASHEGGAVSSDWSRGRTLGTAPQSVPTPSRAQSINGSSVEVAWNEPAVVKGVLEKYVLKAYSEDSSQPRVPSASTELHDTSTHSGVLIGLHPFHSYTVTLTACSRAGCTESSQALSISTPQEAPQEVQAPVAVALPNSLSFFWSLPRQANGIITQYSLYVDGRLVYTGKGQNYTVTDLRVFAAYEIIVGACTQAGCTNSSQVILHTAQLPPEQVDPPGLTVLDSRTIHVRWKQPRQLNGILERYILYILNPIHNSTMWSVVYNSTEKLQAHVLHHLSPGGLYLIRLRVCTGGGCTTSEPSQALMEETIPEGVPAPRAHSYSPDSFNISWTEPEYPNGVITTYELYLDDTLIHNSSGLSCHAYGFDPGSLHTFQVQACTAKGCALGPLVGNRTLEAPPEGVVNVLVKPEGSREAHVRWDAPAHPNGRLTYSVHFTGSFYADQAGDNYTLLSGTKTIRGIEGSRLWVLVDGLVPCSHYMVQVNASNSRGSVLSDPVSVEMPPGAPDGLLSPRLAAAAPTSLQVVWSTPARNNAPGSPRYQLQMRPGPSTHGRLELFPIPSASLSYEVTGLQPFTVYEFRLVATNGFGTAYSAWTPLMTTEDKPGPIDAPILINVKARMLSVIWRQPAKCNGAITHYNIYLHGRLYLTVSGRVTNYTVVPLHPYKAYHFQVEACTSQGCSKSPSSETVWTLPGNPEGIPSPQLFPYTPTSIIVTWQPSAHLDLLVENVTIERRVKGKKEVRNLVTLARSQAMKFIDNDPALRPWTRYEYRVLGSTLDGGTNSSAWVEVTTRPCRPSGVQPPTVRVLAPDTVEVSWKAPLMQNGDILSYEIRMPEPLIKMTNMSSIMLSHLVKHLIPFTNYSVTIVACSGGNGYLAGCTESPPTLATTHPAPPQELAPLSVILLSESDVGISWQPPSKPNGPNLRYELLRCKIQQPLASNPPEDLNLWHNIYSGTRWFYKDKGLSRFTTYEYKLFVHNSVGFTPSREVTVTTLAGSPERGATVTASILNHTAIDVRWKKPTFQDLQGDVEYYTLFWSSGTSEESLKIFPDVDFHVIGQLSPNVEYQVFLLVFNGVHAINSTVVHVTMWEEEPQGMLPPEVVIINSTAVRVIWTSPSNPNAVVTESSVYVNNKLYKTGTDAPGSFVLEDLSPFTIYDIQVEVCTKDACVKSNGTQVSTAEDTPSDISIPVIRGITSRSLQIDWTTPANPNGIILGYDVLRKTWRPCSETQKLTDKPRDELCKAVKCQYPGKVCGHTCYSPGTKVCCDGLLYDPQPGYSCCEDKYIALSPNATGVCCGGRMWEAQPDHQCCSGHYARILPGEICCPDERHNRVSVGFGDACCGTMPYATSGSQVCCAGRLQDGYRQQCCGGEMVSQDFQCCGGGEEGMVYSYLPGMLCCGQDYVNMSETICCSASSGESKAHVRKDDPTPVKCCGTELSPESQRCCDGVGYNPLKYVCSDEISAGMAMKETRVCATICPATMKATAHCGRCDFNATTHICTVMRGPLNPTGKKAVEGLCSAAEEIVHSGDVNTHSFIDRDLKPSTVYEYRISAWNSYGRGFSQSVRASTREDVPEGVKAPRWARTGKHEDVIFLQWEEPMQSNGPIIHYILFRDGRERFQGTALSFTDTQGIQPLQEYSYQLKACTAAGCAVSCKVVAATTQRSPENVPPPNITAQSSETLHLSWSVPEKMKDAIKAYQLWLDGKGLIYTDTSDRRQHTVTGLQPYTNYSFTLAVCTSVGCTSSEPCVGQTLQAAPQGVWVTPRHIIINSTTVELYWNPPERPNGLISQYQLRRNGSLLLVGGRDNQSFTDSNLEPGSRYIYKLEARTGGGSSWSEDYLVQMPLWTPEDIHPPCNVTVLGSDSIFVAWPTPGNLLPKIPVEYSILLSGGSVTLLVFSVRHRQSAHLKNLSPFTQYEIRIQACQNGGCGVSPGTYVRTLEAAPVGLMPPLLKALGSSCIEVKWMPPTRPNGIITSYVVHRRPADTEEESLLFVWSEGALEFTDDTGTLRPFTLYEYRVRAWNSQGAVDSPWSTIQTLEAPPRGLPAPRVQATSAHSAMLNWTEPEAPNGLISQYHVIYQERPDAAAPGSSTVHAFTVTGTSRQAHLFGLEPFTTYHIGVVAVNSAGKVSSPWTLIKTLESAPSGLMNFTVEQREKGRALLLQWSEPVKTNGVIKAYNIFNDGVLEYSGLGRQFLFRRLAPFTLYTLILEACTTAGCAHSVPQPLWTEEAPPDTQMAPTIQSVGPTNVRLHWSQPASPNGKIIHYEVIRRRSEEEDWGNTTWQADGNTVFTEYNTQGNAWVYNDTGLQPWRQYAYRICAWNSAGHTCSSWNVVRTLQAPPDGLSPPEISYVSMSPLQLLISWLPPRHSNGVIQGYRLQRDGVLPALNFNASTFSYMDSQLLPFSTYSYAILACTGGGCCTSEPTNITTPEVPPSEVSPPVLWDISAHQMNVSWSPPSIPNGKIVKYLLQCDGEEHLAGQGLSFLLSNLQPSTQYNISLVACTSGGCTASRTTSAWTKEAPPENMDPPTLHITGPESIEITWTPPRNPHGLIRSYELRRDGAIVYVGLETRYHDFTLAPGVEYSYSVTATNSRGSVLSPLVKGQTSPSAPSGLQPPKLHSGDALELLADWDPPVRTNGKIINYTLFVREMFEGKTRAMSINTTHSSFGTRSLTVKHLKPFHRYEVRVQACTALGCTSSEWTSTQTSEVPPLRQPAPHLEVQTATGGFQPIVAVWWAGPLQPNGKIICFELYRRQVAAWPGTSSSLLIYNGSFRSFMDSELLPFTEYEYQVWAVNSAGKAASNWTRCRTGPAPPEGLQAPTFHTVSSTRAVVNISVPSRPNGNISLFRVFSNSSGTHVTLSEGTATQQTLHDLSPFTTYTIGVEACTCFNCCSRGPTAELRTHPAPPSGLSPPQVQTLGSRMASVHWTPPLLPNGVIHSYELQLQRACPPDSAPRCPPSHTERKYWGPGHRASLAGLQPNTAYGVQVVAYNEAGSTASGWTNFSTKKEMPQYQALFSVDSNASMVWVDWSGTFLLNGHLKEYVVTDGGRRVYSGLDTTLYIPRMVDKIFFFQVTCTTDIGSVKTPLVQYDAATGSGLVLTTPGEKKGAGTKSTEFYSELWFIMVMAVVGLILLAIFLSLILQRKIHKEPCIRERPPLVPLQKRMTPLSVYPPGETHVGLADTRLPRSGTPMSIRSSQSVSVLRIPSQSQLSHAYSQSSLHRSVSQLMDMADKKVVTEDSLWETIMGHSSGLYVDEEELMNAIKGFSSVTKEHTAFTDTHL

According to article PMC10039067, “Temporal and spatial assembly of inner ear hair cell ankle link condensate through phase separation” (Nature Communications, 2023):

How the values were obtained:
WHRN NPDZ12 = biological target: T1, WHRN NPDZ12 (UniProt Q9P202); test: ITC; MicroCal iTC200, 25 °C; 50 mM tris pH 7.5-8.0, 300 mM NaCl, 1 mM DTT, 1 mM EDTA; cell 20–50 µM, syringe 400–800 µM; one-site binding model; both purified
T1 sequence: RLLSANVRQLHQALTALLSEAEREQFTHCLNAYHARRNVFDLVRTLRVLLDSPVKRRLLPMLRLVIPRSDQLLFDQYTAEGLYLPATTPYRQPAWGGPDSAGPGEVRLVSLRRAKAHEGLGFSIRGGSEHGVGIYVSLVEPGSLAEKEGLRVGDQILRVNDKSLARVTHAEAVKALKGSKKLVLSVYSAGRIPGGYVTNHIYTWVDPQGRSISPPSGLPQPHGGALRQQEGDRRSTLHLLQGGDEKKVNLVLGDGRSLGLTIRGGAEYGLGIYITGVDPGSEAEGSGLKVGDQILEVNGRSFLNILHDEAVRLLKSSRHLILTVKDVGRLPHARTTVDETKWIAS

PDZD7 PDZ12 = biological target: T2, PDZD7 PDZ12 (UniProt E9Q9W7); test: as above
T2 sequence: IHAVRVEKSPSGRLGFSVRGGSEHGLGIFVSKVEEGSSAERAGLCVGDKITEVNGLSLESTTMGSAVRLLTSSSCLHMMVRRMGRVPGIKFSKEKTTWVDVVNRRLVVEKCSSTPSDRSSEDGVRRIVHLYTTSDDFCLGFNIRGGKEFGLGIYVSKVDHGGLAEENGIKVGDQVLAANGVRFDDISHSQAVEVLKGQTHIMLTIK

Row | Substance | binding (WHRN NPDZ12) | binding (PDZD7 PDZ12)
1 | USH2A-CT △PBM (from UniProt Q2QI47) (domain or fragment) | no binding (tested: cell 20–50 µM, syringe 400–800 µM) | –
2 | USH2A-CT(S) △PBM (from UniProt Q2QI47) (domain or fragment) | – | no binding (tested: cell 20–50 µM, syringe 400–800 µM)

These are yes or no findings as the source states them, for the method shown.
